# Cell number after 72 h of treatment

From a melanoma drug combination screen (doi:10.1371/journal.pone.0140310); values rounded.

Drug key:
vatalanib: Clc1ccc(Nc2nnc(Cc3ccncc3)c3ccccc23)cc1 at 10 µM
sorafenib: CNC(=O)c1cc(Oc2ccc(NC(=O)Nc3ccc(Cl)c(C(F)(F)F)c3)cc2)ccn1 at 2 µM
OSU-03012: NCC(=O)Nc1ccc(-n2nc(C(F)(F)F)cc2-c2ccc3c(ccc4ccccc43)c2)cc1 at 5 µM
CX-4945: O=C(O)c1ccc2c(c1)nc(Nc1cccc(Cl)c1)c1ccncc12 at 2 µM
MK-2206: NC1(c2ccc(-c3nc4ccn5c(=O)[nH]nc5c4cc3-c3ccccc3)cc2)CCC1 at 2 µM
RKI-983: C[C@@H](N)c1ccc(C(=O)Nc2ccnc3[nH]ccc23)cc1 at 2 µM
dasatinib: Cc1nc(Nc2ncc(C(=O)Nc3c(C)cccc3Cl)s2)cc(N2CCN(CCO)CC2)n1 at 0.02 µM
everolimus: CO[C@H]1C[C@@H]2CC[C@@H](C)[C@@](O)(O2)C(=O)C(=O)N2CCCC[C@H]2C(=O)O[C@H]([C@H](C)C[C@@H]2CC[C@@H](OCCO)[C@H](OC)C2)CC(=O)[C@H](C)/C=C(\C)[C@@H](O)[C@@H](OC)C(=O)[C@H](C)C[C@H](C)/C=C/C=C/C=C/1C at 0.1 µM
perifosine: CCCCCCCCCCCCCCCCCCOP(=O)([O-])OC1CC[N+](C)(C)CC1 at 2 µM
cisplatin: N.N.[Cl][Pt][Cl] at 8 µM
nutlin-3: COc1ccc(C2=N[C@@H](c3ccc(Cl)cc3)[C@@H](c3ccc(Cl)cc3)N2C(=O)N2CCNC(=O)C2)c(OC(C)C)c1 at 0.5 µM
CHIR-265: Cn1c(Nc2ccc(C(F)(F)F)cc2)nc2cc(Oc3ccnc(-c4ncc(C(F)(F)F)[nH]4)c3)ccc21 at 0.4 µM
lestaurtinib: C[C@]12O[C@H](C[C@]1(O)CO)n1c3ccccc3c3c4c(c5c6ccccc6n2c5c31)CNC4=O at 0.02 µM
CP-690550: C[C@@H]1CCN(C(=O)CC#N)C[C@@H]1N(C)c1ncnc2[nH]ccc12 at 5 µM
SNS-032: CC(C)(C)c1cnc(CSc2cnc(NC(=O)C3CCNCC3)s2)o1 at 0.05 µM
FK866: O=C(/C=C/c1cccnc1)NCCCCC1CCN(C(=O)c2ccccc2)CC1 at 0.05 µM

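The test systems are human melanoma cell lines, treated with two drugs together for 72 h and then stained and imaged. Values are the number of DAPI-stained nuclei as a percentage of the DMSO control: 100 is no effect, lower means fewer cells. Every drug was used at one fixed concentration, the higher of two screened. These are primary screening values without error estimates.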
This is part of the screen, not chosen by result.
A dash means that no value is listed here.

Drugs,A2058,A375,COLO 800
dasatinib + RKI-983,51.1,67.5,123
RKI-983 + MK-2206,47.0,98.0,116
cisplatin + perifosine,-,-,95.1
cisplatin + RKI-983,-,-,74.2
nutlin-3 + SNS-032,-,-,58.4
CHIR-265 + everolimus,-,-,48.9
perifosine + CX-4945,66.2,74.8,42.1
CP-690550 + OSU-03012,-,-,50.1
CP-690550 + FK866,-,-,36.9
sorafenib + RKI-983,73.2,134,68.7
vatalanib + dasatinib,-,-,55.1
perifosine + lestaurtinib,-,-,73.8
SNS-032 + CX-4945,-,-,50.8